These are yes or no findings as the source states them, for the method shown. In cells and extracts the contact can be indirect. Some results given as binding are weak or reduced against the parent protein; the word gives no strength. Where a sequence is shown, tags or fusion partners need not be part of it.
Tests used:
Test in all cases: pull-down; protein-A affinity pull-down from extracts of Fc, Fc-Angptl3, Fc-Angptl4 and Fc-Angptl8 McA cells, 4 °C for ~12 h; lysis buffer 150 mM NaCl, 50 mM Tris pH 7.5, 1% IGEPAL CA-630; Western with anti-SmarcAL1 and anti-Fc
Fc-Angptl4 (human) = target: T1, Fc-Angptl4 (human) (UniProt Q9BY76)
T1 sequence: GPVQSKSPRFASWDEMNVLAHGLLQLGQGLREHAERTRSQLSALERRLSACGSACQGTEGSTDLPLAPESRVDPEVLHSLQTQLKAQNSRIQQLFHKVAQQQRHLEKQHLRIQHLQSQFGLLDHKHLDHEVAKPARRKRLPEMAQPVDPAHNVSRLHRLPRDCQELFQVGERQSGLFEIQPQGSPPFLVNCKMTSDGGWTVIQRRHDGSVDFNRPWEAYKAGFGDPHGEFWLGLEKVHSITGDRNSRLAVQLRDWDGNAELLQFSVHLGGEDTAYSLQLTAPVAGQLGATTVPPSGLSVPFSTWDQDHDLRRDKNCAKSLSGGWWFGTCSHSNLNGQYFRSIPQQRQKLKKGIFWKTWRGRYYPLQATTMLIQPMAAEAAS

Fc-Angptl8 (human) = target: T2, Fc-Angptl8 (human) (UniProt Q6UXH0)
T2 sequence: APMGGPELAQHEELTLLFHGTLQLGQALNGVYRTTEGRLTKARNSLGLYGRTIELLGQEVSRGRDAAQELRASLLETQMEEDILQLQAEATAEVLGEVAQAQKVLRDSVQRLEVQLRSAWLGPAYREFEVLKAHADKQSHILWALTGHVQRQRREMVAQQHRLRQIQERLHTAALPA

[1] = target: T3, Fc-tagged human Angptl3 (human) (UniProt Q9Y5C1)
T3 sequence: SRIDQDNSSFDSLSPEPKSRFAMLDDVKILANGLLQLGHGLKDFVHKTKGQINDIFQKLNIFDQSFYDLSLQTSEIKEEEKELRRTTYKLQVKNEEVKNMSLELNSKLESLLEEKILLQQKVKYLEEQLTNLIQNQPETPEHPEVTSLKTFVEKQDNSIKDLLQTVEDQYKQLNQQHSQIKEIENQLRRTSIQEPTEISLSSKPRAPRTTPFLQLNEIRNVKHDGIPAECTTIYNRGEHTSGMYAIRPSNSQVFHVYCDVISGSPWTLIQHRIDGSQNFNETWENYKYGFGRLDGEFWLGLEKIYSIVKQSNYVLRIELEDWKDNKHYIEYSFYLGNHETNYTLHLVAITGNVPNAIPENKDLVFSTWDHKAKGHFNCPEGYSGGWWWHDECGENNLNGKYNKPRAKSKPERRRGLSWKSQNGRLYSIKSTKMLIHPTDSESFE

binding (Fc-Angptl4 (human)): no binding
binding (Fc-Angptl8 (human)): no binding
binding [1]: binds
B1: SmarcAL1 (SWI/SNF-related matrix-associated actin-dependent regulator of chromatin subfamily A-like protein 1) (protein, UniProt B4F769 1-910)
chain: MSLPLTEEQRKKIEENRQKALARRAEKLWAEQPQSTASGSSAARPSQCKQNSLLNLPAEPSKPEGHATISKGQNLNNSLPAAQRPHSSPCFQPSTAEEAKGLWKSEGKMSAACPNPSPPEVSNQQLLGSKSSEGHPQATQDTAASCPRPFPRDPKLEAKAGRPSTSGQSISDTFYALGEKTPKTDGRPAKALQTSPQKASCLRGMCLRTGDRFRVKIGYNKELIEVFKSLPSRRYDSFTKTWDFSMSDYRALMKAVERLSTVSLQPLEEVDGTGGQTSLPSAPSLTFVTGRCMLISRARFEVDIGYSEVVIALFKQMESRNYDPKTRKWNFLLEEHNKLIARSRELKQVQLDPLPKTLTLAFASQLEKTSLQSKADVPEADLSGVDAKLVSNLMPFQREGVSFAISKRGRLLLADDMGLGKTIQAICIAAFYRKEWPLLVVVPSSVRFTWEQAFLRWLPSLSPEDINVVVTGKGRLTAGLVNIVSFDLLSKLEKQLKTPFKVVIIDESHFLKNIKTARCRAAVPILKVAKRVILLSGTPAMSRPAELYTQIIAVKPTFFPQFHAFGLRYCDAKRLPWGWDYSGSSNLGELKLLLEEAVMLRRLKSDVLSQLPAKQRKMVVVNPGRISTRAKAALDAAAKEMTKDKTKQQQKEALLVFFNRTAEAKIPCVIEYILDLLESGREKFLVFAHHKVLLDAIAKELERKNVQHIRIDGSTPSADREDLCQQFQLSKGHTVAVLSITAANMGLTFSSADLVVFAELFWNPGVLIQAEDRVHRIGQTNSVGIHYLVAKGTADDYLWPLIQEKIKVLGEAGLSETNFSEMTEATDYLYKDPKQKTIYSLFQQSFEDDGNDMEFLEAAESFELGSTSGTSGNSSQELGDITDENALADSPPKKRRFEFFDNWDSFTSPF

Reference: publication PMC10739977
